Results on four compounds are retold here after patent US20240335544A1, “M6PR CELL SURFACE RECEPTOR BINDING COMPOUNDS AND CONJUGATES” (LYCIA THERAPEUTICS, INC., priority 2021, published 2024).

Amino acid sequences for entries named in this document (tags omitted). Residues count along the entry.
UniProt P11717, 41-1365 limits assumed: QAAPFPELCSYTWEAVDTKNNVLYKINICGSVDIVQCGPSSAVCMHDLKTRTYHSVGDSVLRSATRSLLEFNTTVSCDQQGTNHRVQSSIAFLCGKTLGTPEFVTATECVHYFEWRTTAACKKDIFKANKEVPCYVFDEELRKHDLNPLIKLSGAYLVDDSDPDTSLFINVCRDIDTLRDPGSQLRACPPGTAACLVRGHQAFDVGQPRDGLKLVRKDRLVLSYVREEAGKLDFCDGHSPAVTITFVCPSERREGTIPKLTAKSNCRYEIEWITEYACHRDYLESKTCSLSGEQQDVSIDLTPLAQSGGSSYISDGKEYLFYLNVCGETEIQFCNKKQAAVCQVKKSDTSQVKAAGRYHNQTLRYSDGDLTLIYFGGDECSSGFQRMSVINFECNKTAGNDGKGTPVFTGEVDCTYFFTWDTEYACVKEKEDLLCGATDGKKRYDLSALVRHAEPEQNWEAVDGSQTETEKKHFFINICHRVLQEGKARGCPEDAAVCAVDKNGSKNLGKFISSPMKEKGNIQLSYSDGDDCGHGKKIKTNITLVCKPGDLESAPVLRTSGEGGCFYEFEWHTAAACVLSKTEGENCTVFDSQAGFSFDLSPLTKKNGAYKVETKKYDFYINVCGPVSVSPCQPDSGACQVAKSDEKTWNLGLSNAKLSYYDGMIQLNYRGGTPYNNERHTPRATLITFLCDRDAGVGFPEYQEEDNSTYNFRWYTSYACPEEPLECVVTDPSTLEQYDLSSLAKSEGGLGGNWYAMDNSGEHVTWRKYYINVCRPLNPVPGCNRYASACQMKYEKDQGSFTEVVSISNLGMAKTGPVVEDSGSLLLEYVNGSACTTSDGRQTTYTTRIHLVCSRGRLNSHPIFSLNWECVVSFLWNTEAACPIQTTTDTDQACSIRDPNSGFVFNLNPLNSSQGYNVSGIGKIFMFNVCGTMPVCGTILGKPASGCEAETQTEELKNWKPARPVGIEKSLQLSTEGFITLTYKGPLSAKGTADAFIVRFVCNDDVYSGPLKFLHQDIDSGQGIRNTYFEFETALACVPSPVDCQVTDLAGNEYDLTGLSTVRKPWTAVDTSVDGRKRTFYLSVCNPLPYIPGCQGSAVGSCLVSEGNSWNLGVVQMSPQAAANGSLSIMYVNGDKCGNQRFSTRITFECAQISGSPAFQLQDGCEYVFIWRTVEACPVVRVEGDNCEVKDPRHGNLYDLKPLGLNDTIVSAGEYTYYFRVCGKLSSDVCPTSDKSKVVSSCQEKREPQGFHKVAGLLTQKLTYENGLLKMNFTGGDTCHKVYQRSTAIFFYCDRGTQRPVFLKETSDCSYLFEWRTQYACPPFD

For test [1], the system named is wild type (WT) K562 cells. Briefly: CI-M6PR mediated uptake of Alexa488-IgE in wild type K562 cells. The conditions noted are these: omalizumab conjugates, average loading DAR9, FIG. 14.
Another test has as its system Jurkat cells. Put plainly: Conjugate-mediated uptake of IgG2a-Alexa488 into Jurkat cells. The conditions noted are these: one hour incubation, FIG. 12; DAR 9-11 per conjugate.
Test [2] deals with recombinant human CI-M6PR protein (Homo sapiens, UniProt P11717). Put plainly: Human CI-M6PR binding assay (ELISA).

Read-outs that look alike come from different tables or passages of the source. The match of structure and compound is tentative.

Regarding `O=C(CCOCCOCCOCCOCCn1cc(CCCCNC(=S)Nc2ccc(O[C@H]3O[C@H](CC(C(=O)O)C(=O)O)[C@@H](O)[C@H](O)[C@@H]3O)cc2)nn1)Oc1c(F)c(F)c(F)c(F)c1F`, in test [1], the “cell uptake of Alexa488-IgE target, WT K562 versus CI-M6PR KO cells” value was “CI-M6PR dependent”. In addition, the “uptake into Jurkat cells (cell fluorescence vs conjugate concentration)” value in the test on Jurkat cells is “strong cell uptake”.
The term EC50 denotes the concentration that produces a half-maximal response. As for `O=C(CCOCCn1cc(CCCCNC(=S)Nc2ccc(O[C@H]3O[C@H](CCP(=O)(O)O)[C@@H](O)[C@H](O)[C@@H]3O)cc2)nn1)Oc1c(F)c(F)c(F)c(F)c1F`, in the test with Jurkat cells, the “uptake into Jurkat cells (cell fluorescence vs conjugate concentration)” value is given as “strong cell uptake”. Besides, the EC50 in test [2] (read-out: EC50 (nM) in M6PR binding assay, antibody conjugate, average loading DAR 9.5) was determined as 0.27 nM; in test [2] (read-out: EC50 in M6PR binding assay for conjugates of monovalent compounds of varying linker length and loading, Table 16E, conjugate, m average DAR 9.5) it was 0.27 nM.
Turning to `O=C(CCOCCOCCOCCN(CCOCCOCCOCCn1cc(CCCCNC(=S)Nc2ccc(O[C@H]3O[C@H](CCP(=O)(O)O)[C@@H](O)[C@H](O)[C@@H]3O)cc2)nn1)CCOCCOCCOCCn1cc(CCCCNC(=S)Nc2ccc(O[C@H]3O[C@H](CCP(=O)(O)O)[C@@H](O)[C@H](O)[C@@H]3O)cc2)nn1)NCCN1C(=O)C=CC1=O`, the EC50 in test [2] (read-out: EC50 in M6PR binding assay, Table 16B, antibody conjugate, loading printed as (maleimide-Cys conjugation)) worked out at 0.27 nM.
As to `O=C(CCOCCn1cc(COCCOCCOCCNC(=S)Nc2ccc(O[C@H]3O[C@H](CCP(=O)(O)O)[C@@H](O)[C@H](O)[C@@H]3O)cc2)nn1)Oc1c(F)c(F)c(F)c(F)c1F`, the “uptake into Jurkat cells (cell fluorescence vs conjugate concentration)” value in the test on Jurkat cells is reported as “strong cell uptake”. Moreover, the EC50 in test [2] (read-out: EC50 (nM) in M6PR binding assay, antibody conjugate, average loading DAR 11) came to 0.23 nM; in test [2] (read-out: EC50 in M6PR binding assay for conjugates of monovalent compounds of varying linker length and loading, Table 16E, conjugate, m average DAR 11) it was 0.23 nM.
